PubChem BioAssay AID652243 – Drosophila RNAi Screening Center | 2013

Purpose: 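Fly genes required for human androgen receptor driven transcription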 (primary screen)
Cell system: Drosophila S2R+ cells
Reagents: long dsRNA against Drosophila genes
Timing: 72 h (48 h, then 24 h hormone)
Conditions: synthetic androgen R1881 at 10 nM for 24 h
Read-out: 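Per-well raw luminescence of the androgen-driven firefly reporter and of the Renilla control, two replicates each, without normalisation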
Reading the numbers: firefly reporter light: higher = more light from androgen-responsive reporter; Renilla control light: higher = more constitutive control signal (cell number, transfection)
Call rule: 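Across duplicate plates, a knock-down whose log firefly/Renilla ratio shifted a set fold down or up from the GFP/LacZ control mean was a hit; the downward cut appears as both 1.5 and 3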
Meaning of the calls: active = hit: reporter lowered or raised; inactive = no hit
The screen tested about 24,000 reagents; shown is an unselected part of those that have a named target and a result. Over the whole deposit, 246 (1%) are marked active. 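Plates not normalised; calls are printed but the firefly/Renilla ratio behind them is not deposited; fold cut for lowering reported inconsistently.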 Raw values vary from plate to plate and are shown uncorrected. Reagents against one gene are numbered here. Not stated in the record: the amount of reagent.

target	reagent	firefly reporter light, replicate 1	firefly reporter light, replicate 2	Renilla control light, replicate 1	Renilla control light, replicate 2	Outcome
Cpr67Fa2 (Cuticular protein 67Fa2)	1	3.41e5	2.86e5	4.18e6	3.54e6	inactive
laza (lazaro)	1	55859	61441	5.48e5	4.98e5	inactive
laza (lazaro)	2	6.33e5	6.88e5	1.47e6	1.47e6	inactive
laza (lazaro)	3	6.81e5	6.06e5	1.18e6	9.09e5	inactive
sog (short gastrulation)	1	4.82e5	4.08e5	3.19e6	3.00e6	inactive
CG13018	1	1.13e5	1.57e5	1.46e6	1.46e6	inactive
Lcp65Ac	1	2.19e5	1.83e5	2.93e6	2.08e6	inactive
Lcp65Ac	2	7.21e5	6.63e5	5.78e5	6.61e5	inactive
Txl (Thioredoxin-like)	1	84096	72674	1.61e6	1.34e6	inactive
Ge-1	1	3.93e5	6.23e5	1.28e6	1.54e6	inactive
Ge-1	2	3.86e5	3.85e5	9.55e5	9.65e5	inactive
Cnep1r1 (CTD nuclear envelope phosphatase 1 regulatory subunit 1)	1	8.33e5	9.72e5	1.68e6	1.79e6	inactive
ZnT41F (Zinc transporter 41F)	1	1.05e6	8.67e5	2.45e6	2.49e6	inactive
drosha	1	1.20e6	5.97e5	2.31e6	9.56e5	inactive
Dhpr (Dihydropteridine reductase)	1	1.63e5	1.47e5	3.14e6	2.31e6	inactive
CG5359	1	1.80e5	1.78e5	3.39e6	3.08e6	active
Hr83 (Hormone receptor 83)	1	36403	42722	1.12e6	9.55e5	inactive
Hr83 (Hormone receptor 83)	2	8.71e5	8.97e5	6.72e5	9.27e5	inactive
Mink (Mitotic spindle and nuclear protein)	1	23376	34320	2.76e5	3.12e5	inactive
flfl (falafel)	1	34312	12759	2.22e5	1.84e5	inactive
CG13058	1	4.59e5	2.51e5	3.84e6	2.60e6	inactive
CG13058	2	5.15e5	4.10e5	2.07e6	1.67e6	inactive
Arpc3A (Actin-related protein 2/3 complex, subunit 3A)	1	77490	1.01e5	1.63e6	1.79e6	inactive
Arpc3A (Actin-related protein 2/3 complex, subunit 3A)	2	4.47e5	2.86e5	2.02e6	1.31e6	inactive
Ih (I[[h]] channel)	1	2.25e5	2.27e5	7.08e5	6.47e5	inactive
Ih (I[[h]] channel)	2	8.58e5	9.65e5	2.86e6	2.31e6	inactive
Ih (I[[h]] channel)	3	7.26e5	8.13e5	8.58e5	9.89e5	inactive
Ih (I[[h]] channel)	4	5.14e5	4.76e5	4.68e5	4.79e5	inactive
Ih (I[[h]] channel)	5	1.95e5	3.36e5	7.44e5	5.89e5	inactive
Ih (I[[h]] channel)	6	2.82e5	4.92e5	8.24e5	1.35e6	inactive
Ih (I[[h]] channel)	7	5.31e5	4.33e5	1.34e6	1.16e6	inactive
sordd1	1	5.43e5	4.12e5	9.93e5	1.19e6	inactive
kairos	1	5.94e5	7.20e5	8.48e5	8.82e5	inactive
kairos	2	4.37e5	3.83e5	1.03e6	8.24e5	inactive
CG6484	1	1.59e6	1.48e6	2.89e6	2.43e6	inactive
CG6484	2	5.41e5	4.72e5	1.84e6	1.56e6	inactive
CG31807	1	1.55e5	2.05e5	4.10e5	5.34e5	inactive
CG17129	1	5.36e5	7.97e5	8.75e5	9.30e5	inactive
rho (rhomboid)	1	1.30e5	1.15e5	1.05e6	1.26e6	inactive
CG42382	1	2.36e5	1.34e5	1.58e6	9.63e5	inactive
Meltrin	1	71341	98109	6.78e5	1.03e6	inactive
Meltrin	2	5.22e5	6.29e5	3.23e6	2.02e6	inactive
CG30485	1	92466	64163	2.04e6	2.04e6	inactive
Gat (GABA transporter)	1	4.05e5	3.20e5	3.03e6	2.05e6	inactive
Map205 (Microtubule-associated protein 205)	1	46934	36712	4.29e5	3.18e5	inactive
Map205 (Microtubule-associated protein 205)	2	5.31e5	5.21e5	7.42e5	8.09e5	inactive
mav (maverick)	1	3.42e5	3.91e5	3.91e6	2.98e6	inactive
Sec61gamma (Sec61 gamma subunit)	1	2.67e5	2.29e5	1.07e6	6.23e5	inactive
Sec61gamma (Sec61 gamma subunit)	2	8.49e5	8.64e5	9.34e5	9.06e5	inactive
CG11562	1	84280	83879	7.17e5	9.52e5	inactive
CG18095	1	2.90e5	2.84e5	1.54e6	2.00e6	inactive
rt (rotated abdomen)	1	1.96e5	1.34e5	1.83e6	1.34e6	inactive
Klp10A (Kinesin-like protein at 10A)	1	60619	59668	4.80e5	4.91e5	inactive
Klp10A (Kinesin-like protein at 10A)	2	4.10e5	2.54e5	3.40e5	4.00e5	inactive
CG11529	1	1.50e5	79406	1.70e6	1.54e6	inactive
CG5098	1	6.92e5	6.77e5	1.56e6	1.67e6	inactive
CG5098	2	6.82e5	9.37e5	7.47e5	8.82e5	inactive
CG8132	1	87409	1.25e5	1.40e6	1.69e6	inactive

3 of these entries, reformatted:
target,reagent,"firefly reporter light, replicate 1","firefly reporter light, replicate 2","Renilla control light, replicate 1","Renilla control light, replicate 2",Outcome
CG6484,2,5.41e5,4.72e5,1.84e6,1.56e6,inactive
CG31807,1,1.55e5,2.05e5,4.10e5,5.34e5,inactive
CG17129,1,5.36e5,7.97e5,8.75e5,9.30e5,inactive
